Assay results as given in PubChem BioAssay AID1347426 (Functional Genomics Laboratory (NCATS/FGL), 2020).
The campaign covered roughly 31,000 sequences. About 1,400 (4.5%) were called active.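 Rule for the calls: active = median seed-adjusted z-score above 1 or below -1; inactive = the rest.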 This is one part of the list.

Assay: Novel Modifiers of Survival Motor Neuron (SMN) Protein: Gene Identification via Genome-wide siRNA Screen;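 note: luminescence tracks full-length SMN protein made from the SMN2 reporter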
Details: HEK293T SMN2-luciferase reporter, siRNA knockdown, 72 h; actives lie on both sides
How it was run: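 Genome-wide siRNA screen (10418 genes, 3 siRNAs each, 1 pmol per well) by reverse transfection in HEK293T cells stably carrying an SMN2-luciferase reporter; luminescence after 72 hours, normalized to negative-control siRNA, log10-transformed, MAD-scored.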
For GGAGUCUCAUAGAUGACAATT against MMP27, the median seed-adjusted z-score was inactive: -0.084.
For UCACUGUGCUACAUCAUCATT against MYL7, the median seed-adjusted z-score was active: -1.21.
In the case of GGGAAAAGCUUGACGAUUATT against RNF139, the median seed-adjusted z-score is reported as inactive: 0.175.
For CGGCAGACACUGAACAUCATT against SLC6A18, the median seed-adjusted z-score was inactive: 0.148.
With CCGCCGAUGAGAUUGUGAATT against DAK the median seed-adjusted z-score was inactive: -0.372.
In the case of GCAUCUACUUCCUAGCCGUTT against NPBWR2, the median seed-adjusted z-score is reported as inactive: 0.438.
In the case of CCAGCGGUGUGGAAUGAGATT against LHPP, the median seed-adjusted z-score is reported as inactive: 0.02.
With GUAUGGAACCAAUUAUAGATT against CPO the median seed-adjusted z-score was inactive: 0.0875.
With GCAAAGCCCUGUCAAACAATT against NPM2 the median seed-adjusted z-score was inactive: 0.215.
For GCAGCAGUAUGUGCGCUCATT against DDX54, the median seed-adjusted z-score was inactive: 0.
With CAACGGUUCUUACACCAAATT against EMR4 the median seed-adjusted z-score was inactive: -0.475.
For GGAUGUAAUUGAACGAUUUTT against ADAM17, the median seed-adjusted z-score was inactive: 0.
For GCGACUUACUGAAGUGCAATT against FTSJ3, the median seed-adjusted z-score was inactive: 0.437.
For CGUUCUCUUAAUAGACAUATT against ZNF124, the median seed-adjusted z-score was inactive: -0.487.
With GUUGCACUGCGUUUCAAAATT against 2-Mar the median seed-adjusted z-score was inactive: 0.335.
For CCAUCUAUCUGUGGGAGUUTT against ELF4, the median seed-adjusted z-score was inactive: -0.0311.
In the case of GCACGUAGAAAUGAUGAUATT against SMARCAD1, the median seed-adjusted z-score is reported as inactive: -0.198.
With GAGAAAGAGUUCAAAUACATT against CLIC3 the median seed-adjusted z-score was inactive: 0.
For GCAACUACAGCACGAAUUATT against ZFHX4, the median seed-adjusted z-score was inactive: 0.0868.
For CAAGGGCACCUCUAAGGAUTT against GRB7, the median seed-adjusted z-score was inactive: 0.439.
With GGACUACGAUGCUGGGAGATT against NCBP2 the median seed-adjusted z-score was inactive: -0.247.
For AGCCUAUGCCUAUAAAGAATT against RPH3A, the median seed-adjusted z-score was inactive: 0.232.
With GCGGUACAUUUGUAACUCUTT against IL15RA the median seed-adjusted z-score was inactive: -0.0113.
In the case of AGUUCCGGGUGUUUAAUAATT against ITLN2, the median seed-adjusted z-score is reported as inactive: 0.00733.
With GAGCAGACUUGAUCAAGCATT against HSDL1 the median seed-adjusted z-score was inactive: 0.0547.
For CUCUACCAACAAUCACAAATT against NPTN, the median seed-adjusted z-score was inactive: 0.133.
In the case of AGAACUCACUGACCUUCAATT against FOXI1, the median seed-adjusted z-score is reported as inactive: -0.217.
For GCAGGGCAUUAUUCUAGAATT against MIZF, the median seed-adjusted z-score was inactive: 0.365.
For GGAUCAACCGCUGCUUGAATT against HELT, the median seed-adjusted z-score was inactive: -0.192.
For GAAUCUACCUUAAUAUCGUTT against ARHGEF12, the median seed-adjusted z-score was inactive: 0.136.
